# Test results published in PMC9882985 (Science Advances, 2023).
# Results are given in words; binding and its absence hold for the method and conditions named. Binding seen in cells or lysates may run through a third protein. Here binding means that the protein was enriched with, or labelled near, the bait; the list need not be complete.
# B1: endogenous CP2c (protein, UniProt Q12800 1-502)
# chain: MAWALKLPLADEVIESGLVQDFDASLSGIGQELGAGAYSMSDVLALPIFKQEESSLPPDNENKILPFQYVLCAATSPAVKLHDETLTYLNQGQSYEIRMLDNRKLGELPEINGKLVKSIFRVVFHDRRLQYTEHQQLEGWRWNRPGDRILDIDIPMSVGIIDPRANPTQLNTVEFLWDPAKRTSVFIQVHCISTEFTMRKHGGEKGVPFRVQIDTFKENENGEYTEHLHSASCQIKVFKPKGADRKQKTDREKMEKRTPHEKEKYQPSYETTILTECSPWPEITYVNNSPSPGFNSSHSSFSLGEGNGSPNHQPEPPPPVTDNLLPTTTPQEAQQWLHRNRFSTFTRLFTNFSGADLLKLTRDDVIQICGPADGIRLFNALKGRMVRPRLTIYVCQESLQLREQQQQQQQQQQKHEDGDSNGTFFVYHAIYLEELTAVELTEKIAQLFSISPCQISQIYKQGPTGIHVLISDEMIQNFQEEACFILDTMKAETNDSYHIILK
# Molecular target: SUMO1 (construct not stated) (UniProt P63165)
# Assay: affinity purification with mass spectrometry; DSP crosslinking, sequential IP of SUMO1 and PSME3, MALDI-TOF MS, MASCOT; positive when found in duplicated experiments
row,binding,Molecule
1,binds,BRD4 (from UniProt O60885 1-1362)
2,binds,p53 (from UniProt P04637 1-393)
3,binds,B1
